These are yes or no findings as the source states them, for the method shown. Some results given as binding are weak or reduced against the parent protein; the word gives no strength.
Key:
[1] = biological target: T1, Bovine plasma alpha-2-macroglobulin (bovine) (UniProt Q7SIH1); experiment: α2-M binding / complex formation assay
T1 sequence (looked up): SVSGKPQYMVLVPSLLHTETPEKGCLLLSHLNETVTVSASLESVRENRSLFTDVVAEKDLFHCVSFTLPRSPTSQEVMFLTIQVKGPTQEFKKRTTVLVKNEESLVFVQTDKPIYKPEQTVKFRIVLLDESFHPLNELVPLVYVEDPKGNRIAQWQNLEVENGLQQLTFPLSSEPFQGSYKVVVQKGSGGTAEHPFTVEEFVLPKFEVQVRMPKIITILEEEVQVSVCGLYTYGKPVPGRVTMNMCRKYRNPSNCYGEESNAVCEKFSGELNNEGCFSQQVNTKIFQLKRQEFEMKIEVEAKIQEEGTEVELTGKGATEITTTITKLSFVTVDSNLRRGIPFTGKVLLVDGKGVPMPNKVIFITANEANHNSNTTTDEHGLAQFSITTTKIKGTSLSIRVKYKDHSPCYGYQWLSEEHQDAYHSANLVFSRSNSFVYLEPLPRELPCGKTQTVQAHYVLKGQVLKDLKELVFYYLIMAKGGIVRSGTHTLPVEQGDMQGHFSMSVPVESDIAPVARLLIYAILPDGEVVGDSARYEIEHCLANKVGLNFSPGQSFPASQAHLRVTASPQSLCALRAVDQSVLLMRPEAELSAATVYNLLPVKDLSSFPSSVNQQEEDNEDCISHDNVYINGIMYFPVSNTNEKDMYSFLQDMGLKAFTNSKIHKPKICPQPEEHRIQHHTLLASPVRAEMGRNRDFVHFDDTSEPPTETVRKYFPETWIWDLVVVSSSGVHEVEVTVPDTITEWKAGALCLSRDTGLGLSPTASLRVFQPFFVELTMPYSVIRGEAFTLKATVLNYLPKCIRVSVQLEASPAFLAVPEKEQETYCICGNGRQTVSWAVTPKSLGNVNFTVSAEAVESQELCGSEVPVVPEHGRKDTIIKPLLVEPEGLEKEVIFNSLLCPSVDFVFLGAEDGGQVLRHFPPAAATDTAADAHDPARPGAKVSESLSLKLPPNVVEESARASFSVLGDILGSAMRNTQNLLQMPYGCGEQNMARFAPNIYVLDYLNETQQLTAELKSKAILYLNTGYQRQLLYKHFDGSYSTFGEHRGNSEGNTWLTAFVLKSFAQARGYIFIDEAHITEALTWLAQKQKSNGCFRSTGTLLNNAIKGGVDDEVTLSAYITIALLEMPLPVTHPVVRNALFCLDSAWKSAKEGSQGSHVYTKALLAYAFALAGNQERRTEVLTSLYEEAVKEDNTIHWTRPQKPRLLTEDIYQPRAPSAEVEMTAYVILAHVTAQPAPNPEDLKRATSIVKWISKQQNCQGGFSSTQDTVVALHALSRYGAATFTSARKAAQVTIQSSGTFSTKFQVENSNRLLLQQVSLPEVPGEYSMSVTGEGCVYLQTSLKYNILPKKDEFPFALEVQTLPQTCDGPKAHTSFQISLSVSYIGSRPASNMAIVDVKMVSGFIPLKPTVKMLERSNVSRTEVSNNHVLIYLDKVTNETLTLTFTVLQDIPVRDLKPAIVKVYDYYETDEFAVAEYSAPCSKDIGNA

[2] = biological target: T1, Bovine plasma alpha-2-macroglobulin (bovine); experiment: complex formation and cleavage assays, SDS-PAGE
[3] = biological target: T1, Bovine plasma alpha-2-macroglobulin (bovine); experiment: α2-M binding assay; incubation at 37° C. for 16 h, SDS-PAGE, Western blot with anti-Flag M2 antibody
[4] = biological target: T1, Bovine plasma alpha-2-macroglobulin (bovine); experiment: α2-M cleavage assay; SDS-PAGE with silver staining; additional 800-900 kDa band stable to heat denaturation in SDS, EDTA and 2-mercaptoethanol

Measured: binding

B1: Flag-tagged hADAM-19 protein (residues 26-701 of SEQ ID NO: 9) (protein)
chain: REPGWTRGSEEGSPKLQHELIIPQWKTSESPVREKHPLKAELRVMAEGRELILDLEKNEQLFAPSYTETHYTSSGNPQTTTRKLEDHCFYHGTVRETELSSVTLSTCRGIRGLITVSSNLSYVIEPLPDSKGQHLIYRSEHLKPPPGNCGFEHSKPTTRDWALQFTQQTKKRPRRMKREDLNSMKYVELYLVADYLEFQKNRRDQDATKHKLIEIANYVDKFYRSLNIRIALVGLEVWTHGNMCEVSENPYSTLWSFLSWRRKLLAQKYHDNAQLITGMSFHGTTIGLAPLMAMCSVYQSGGVNMDHSENAIGVAATMAHEMGHNFGMTHDSADCCSASAADGGCIMAAATGHPFPKVFNGCNRRELDRYLQSGGGMCLSNMPDTRMLYGGRRCGNGYLEDGEECDCGEEEECNNPCCNASNCTLRPGAECAHGSCCHQCKLLAPGTLCREQARQCDLPEFCTGKSPHCPTNFYQMDGTPCEGGQAYCYNGMCLTYQEQCQQLWGPGARPAPDLCFEKVNVAGDTFGNCGKDMNGEHRKCNMRDAKCGKIQCQSSEARPLESNAVPIDTTIIMNGRQIQCRGTHVYRGPEEEGDMLDPGLVMTGTKCGYNHICFEGQCRNTSFFETEGCGKKCNGHGVCNNNQNCHCLPGWAPPFCNTPGHGGSIDSGPMPPESVG
binds: all assays above

— patent publication US20020173640A1, “ADAM polynucleotides, polypeptides, and antibodies” (Human Genome Sciences, Inc., priority 1999, published 2002)
